Results on 40 molecules are retold here after the supplement of paper PMC8256030.

Each structure is given as a SMILES string. “And” between values parts separate entries of the source, which are not always exact repeats. Identical values can stand only once. This is one part of the list. Repeats in this data set agree poorly, so a single value says little.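 HEK293T cells were given each compound shortly before transfection with a reporter in which red mCherry is followed by the SARS-CoV-2 frameshift element and then GFP in the −1 frame, so GFP appears only after frameshifting.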

This assay relates to SARS-CoV-2 -1 PRF reporter mCherry-FSE-GFP(-1). In words: mCherry (red) intensity as percent of control; higher = higher upstream reporter expression. The settings on record: 10 µM; 24 h; HEK293T.
Molecule `CC(C)c1nc(CN(C)C(=O)N[C@H](C(=O)N[C@@H](Cc2ccccc2)C[C@H](O)[C@H](Cc2ccccc2)NC(=O)OCc2cncs2)C(C)C)cs1` [ritonavir] returned a mCherry of 83.1%.
The value for `O=C1C(=O)c2ccccc2C(O)=C1C1CCC(c2ccc(Cl)cc2)CC1` (stereo not given) was 96.4%; that for `CC1(C)OC(=O)NC1=O` [dimethadione] was 105%; that for `CC[N+]([O-])(CC)CCOc1ccc(/C(=C(/Cl)c2ccccc2)c2ccccc2)cc1` [clomifenoxide] was 104%.
The molecule `COCCCC/C(=N\OCCN)c1ccc(C(F)(F)F)cc1` yielded a mCherry of 96.2%.
The result for `O=C(NCC1CCCO1)c1cc(Br)cc(Br)c1O` (stereo not given) [fursalan] reads 103%; that for `Cc1ccc2nc(C)c(CCN3CCC(C(=O)c4ccc(F)cc4)CC3)c(=O)n2c1` [metrenperone], 88.8%.
The value for `O=C(O)c1ccccc1OP(=O)(O)O` [fosfosal] was 115%; that for `CCCCCCCCCCCCCCCCCCOP(=O)([O-])OC1CC[N+](C)(C)CC1` was 109%; that for `CNCC[C@H](Oc1cccc2ccccc12)c1cccs1` was 147%.
With `Cc1cc(=O)n(-c2ccccc2)n1C` [Phenazone], the mCherry was found to be 109%.
The result for `CC(C)c1[nH]c2ccccc2c1C(=O)c1cccnc1` [nictindole] reads 77.9%; that for `CC(N)C12CC3CC(CC(C3)C1)C2` (stereo not given) [Rimantadine], 119%; that for `C=C[C@]1(C)C[C@@H](OC(=O)CSCCN(CC)CC)[C@]2(C)[C@H](C)CC[C@]3(CCC(=O)[C@H]32)[C@@H](C)[C@@H]1O` [tiamulin], 88.9%.
The value for `CC(=O)Oc1cccc2c1C(=O)c1c(OC(C)=O)cc(C(=O)O)cc1C2=O` [diacerein] was 84.3%; that for `C[C@H](Cc1cc2c(c(C(N)=O)c1)N(CCCO)CC2)NCCOc1ccccc1OCC(F)(F)F` [silodosin] was 103%.
As to `COC(=O)Nc1nc2cc(C(=O)c3ccc(F)cc3)ccc2[nH]1` [Flubendazole], the mCherry was 77.8% and 57.8%.
The result for `CO[C@H]1C[C@H](O[C@H]2[C@H](C)O[C@@H](O[C@@H]3/C(C)=C/C[C@@H]4C[C@@H](C[C@]5(C=C[C@H](C)[C@@H](C6CCCCC6)O5)O4)OC(=O)[C@@H]4C=C(C)[C@@H](O)[C@H]5OC/C(=C\C=C\[C@@H]3C)[C@]54O)C[C@@H]2OC)O[C@@H](C)[C@@H]1O` reads 100%.
The value for `CCCCC[C@H](O)CC[C@@H]1[C@H]2Cc3cccc(OCC(=O)O)c3C[C@H]2C[C@H]1O` [treprostinil] was 106%; that for `COc1cc(N)c(Cl)cc1C(=O)N1CCN(Cc2ccc3c(c2)OCO3)CC1` [peralopride] was 95.6%; that for `C[C@H]1O[C@@H](O[C@H]2[C@@H](O)C[C@H](O[C@H]3[C@@H](O)C[C@H](O[C@H]4CC[C@@]5(C)[C@H](CC[C@@H]6[C@@H]5CC[C@]5(C)[C@@H](C7=CC(=O)OC7)CC[C@]65O)C4)O[C@@H]3C)O[C@@H]2C)C[C@H](O)[C@@H]1O` [Digitoxin] was 13.4%.
Turning to `CO[C@H](C(=O)[C@@H](O)[C@@H](C)O)[C@@H]1Cc2cc3cc(O[C@H]4C[C@@H](O[C@H]5C[C@@H](O)[C@H](O)[C@@H](C)O5)[C@H](O)[C@@H](C)O4)c(C)c(O)c3c(O)c2C(=O)[C@H]1O[C@H]1C[C@@H](O[C@H]2C[C@@H](O[C@H]3C[C@](C)(O)[C@H](O)[C@@H](C)O3)[C@@H](O)[C@@H](C)O2)[C@H](O)[C@@H](C)O1` [plicamycin], the mCherry worked out at 14.8%.
Molecule `CSc1ccc(C(=O)c2[nH]c(=O)[nH]c2C)cc1` [enoximone] displayed a mCherry of 106%.
In turn, `CCC(NC(C)C)C(O)c1ccc(O)c(O)c1` (stereo not given) registered a mCherry of 118%.
As for `CC(C)(O/N=C(\C(=O)N[C@@H]1C(=O)N2C(C(=O)[O-])=C(C[n+]3ccccc3)CS[C@H]12)c1csc(N)n1)C(=O)O` [Fortaz], the mCherry was 105%.
The result for `CC[N+](C)(C)Cc1ccccc1Br` [bretylium tosilate] reads 98.9%.
`CC(N)(Cc1ccc(O)cc1)C(=O)O` (stereo not drawn) [racemetirosine] displayed a mCherry of 106%.
The value for `CNC1COc2ccccc2C(O)C1` (stereo not given) [exepanol] was 91.8%.
For the molecule `O=C1NC(=O)C(C(=O)Nc2ccc(Cl)cc2)c2ccccc21` (stereo not given) [tesicam], the mCherry turned out to be 63.4%.
The value for `CN1C(CSCC(F)(F)F)Nc2cc(Cl)c(S(N)(=O)=O)cc2S1(=O)=O` (stereo not given) [polythiazide] was 115%; that for `CCc1nnc(NS(=O)(=O)c2ccc(N)cc2)s1` [sulfaethidole] was 95.8%; that for `C[C@H]1[C@H](OC(=O)CCC(=O)O)O[C@@H]2O[C@@]3(C)CC[C@H]4[C@H](C)CC[C@@H]1[C@@]24OO3` [Artesunate] was 136%.
In turn, `O=C(O)[C@H](CCc1ccccc1)N[C@H]1CCCN2CCC[C@@H](C(=O)O)N2C1=O` [cilazaprilat] displayed a mCherry of 90.8%.
`CCCc1c2oc(C(=O)O)cc(=O)c2cc2c(=O)cc(C(=O)O)n(CC)c12` [nedocromil] gave a mCherry of 103%.
The result for `CN1CCN(c2ncc(-c3cc(Cl)cc(Cl)c3Cl)c(N)n2)CC1` [sipatrigine] reads 92%; that for `C[C@@H]1C[C@H]2[C@@H]3CCC4=CC(=O)C=C[C@]4(C)[C@@]3(F)[C@@H](O)C[C@]2(C)[C@H]1C(=O)CO` [desoximetasone], 117%.
`CCOC(=O)C1=C[C@]2(CC)CCCN3CCc4c(n1c1ccccc41)[C@@H]32`: the mCherry is 105%.
Turning to `O=C(O)COc1ccc(C(=O)/C=C/c2ccc(C(=O)O)cc2)cc1` [cinfenoac], the mCherry is 105%.
The result for `OCCN1CCN(CC/C=C2/c3ccccc3Sc3ccc(Cl)cc32)CC1` [Zuclopenthixol] reads 105%.
Molecule `N[C@H]1CONC1=O` [levcycloserine] displayed a mCherry of 94.8%.
